Measured values taken from PMC4090575, “An In Vivo Microdialysis Study of FLZ Penetration through the Blood-Brain Barrier in Normal and 6-Hydroxydopamine Induced Parkinson's Disease Model Rats” (BioMed Research International, 2014).

Key:
[1] = In vitro nonspecific binding to microdialysis tubing and in vitro probe recovery
[2] = In vivo microdialysis probe recovery by retrodialysis; design: species or system rat; settings: ringer's solution with 4% BSA, 1 μL/min

Compound: COc1ccc(OC)c(C(=Cc2ccc(O)c(OC)c2)C(=O)NCCc2ccc(O)cc2)c1 [FLZ, N-[2-(4-hydroxy-phenyl)-ethyl]-2-(2,5-dimethoxy-phenyl)-3-(3-methoxy-4-hydroxy-phenyl)-acrylamide]
- FLZ bound to the tubing (nonspecific binding) ([1]; after addition of BSA (0.5%, 2%, or 4%, w/v) to the perfusion fluid): less than 15%
- FLZ bound to the tubing (nonspecific binding) ([1]; perfused with ringer's solution containing FLZ, no BSA): More than 90%
- in vitro recovery of FLZ ([1]; pilot conditions, ringer's solution without BSA): less than 1%
- relative in vivo recovery of FLZ, brain microdialysis probe ([2]; 20 ng/mL perfusate): 13.2%
- relative in vivo recovery of FLZ, blood microdialysis probe ([2]; 200 ng/mL perfusate): 29.0%
